The record followed here is PubChem BioAssay AID602441 (National Center for Advancing Translational Sciences (NCATS), 2012).

Out of some 1,300 compounds screened, fewer than 10 were called active. Another 9% or so got no clear call; they are omitted. Calls come from the whole dose curve; as a rule, active = well fitted curve in the direction sought with a large enough effect; inconclusive = small, poorly fitted or top-dose-only effect, or another doubt; inactive = no such curve, though single readings can be large or run the other way. The list shows a part of the results.

A short description of this experiment: qHTS for antagonists of the Thyroid Stimulation Hormone Receptor: Hit Validation in Parental Cell Line. Note: 0% is about no effect. The settings on record: parental HEK293 cells lacking TSHR, counter-screen; series mostly up to 56.9 µM; activity change, negative = inhibition: at the top concentration. In outline:
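Counterscreen in untransfected parental HEK-EM 293 cells. Lysate cAMP displaces cAMP-d2 from cryptate-tagged anti-cAMP antibody, and homogeneous TR-FRET is read at 665 nm with 337 nm excitation after stimulation.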
In general terms: In qHTS, concentration-response curves come from the screen itself.
Consider `CC1CCN(CCCNC(=O)CN2C(=O)CSc3ccc(S(=O)(=O)N4CCOCC4)cc32)CC1`, for which the “activity change, negative = inhibition” value is inactive: 2.26%.

Take `O=C(Nc1ccn(Cc2ccccc2F)n1)c1ccc(COc2ccccc2Cl)cc1`: the “activity change, negative = inhibition” value was inactive: -9.46%.

Consider `COc1ccc(/C=C2/SC(=S)NC2=O)cc1OCc1ccccc1`, for which the “activity change, negative = inhibition” value is inactive: -11.5%.

Take `CCc1ccc(NS(=O)(=O)c2cc3[nH]c(=O)c(=O)[nH]c3cc2C)cc1`: the “activity change, negative = inhibition” value was inactive: 5.97%.

As for `CC(C)NC(=O)COc1coc(CN2CCN(c3ccccc3F)CC2)cc1=O`, the “activity change, negative = inhibition” value is inactive: 0.894%.

`COc1ccccc1NS(=O)(=O)c1cccc(NC(=O)c2ccc3ccccc3n2)c1`: the “activity change, negative = inhibition” value was inactive: -6.57%.

On to `CCOc1ccc(Nc2nc(Cc3nnc(SCC(=O)c4ccc(C)cc4)o3)cs2)cc1`, for which the “activity change, negative = inhibition” value is inactive: 2.12%.

Consider `CCOC(=O)c1ccc(NC(=O)c2nc(S(=O)(=O)Cc3ccccc3)ncc2Cl)cc1`, for which the “activity change, negative = inhibition” value was inactive: 5.14%.

In the case of `C=CCNc1ncnc2ccc(Br)cc12`, the “activity change, negative = inhibition” value was inactive: 2.74%.

Regarding `O=C1NC(=S)S/C1=C\c1cc2ccccc2nc1N1CCCCC1`, the “activity change, negative = inhibition” value was inactive: 1.44%.

In the case of `Cn1c(CNC(=O)c2ccc(Cl)cc2)nnc1SCC(=O)NC1CCCC1`, the “activity change, negative = inhibition” value is inactive: 1.09%.

Consider `CCOC(=O)c1c(NC(NC(=O)C(C)C)C(Cl)(Cl)Cl)sc2c1CCC2` (stereo unspecified), for which the “activity change, negative = inhibition” value was inactive: 0.236%.

`CCOc1ccccc1NC(=O)C1(S(=O)(=O)c2ccc(Cl)cc2)CC1`: the “activity change, negative = inhibition” value was inactive: 4.72%.

With `COc1cc(OC)cc(-c2cc3cc4c(cc3cn2)OCO4)c1`, the “activity change, negative = inhibition” value was inactive: -3.04%.

As to `Cc1ccccc1-n1sc2cc(F)ccc2c1=O`, the “activity change, negative = inhibition” value was inactive: -7.14%.

Turning to `CCOC(=O)Cn1c(=NC(=O)CSC(C)=O)sc2ccccc21`, the “activity change, negative = inhibition” value is inactive: -0.0178%.

Regarding `COc1ccccc1CNS(=O)(=O)c1ccc(-n2cccn2)cc1`, the “activity change, negative = inhibition” value was inactive: 1.26%.

As for `CC(C)c1ccccc1OCCNC(=O)c1cccnc1`, the “activity change, negative = inhibition” value was inactive: 1.83%.

Turning to `CCOC(=O)N1CCN(C(=O)c2ccc3c(c2)N=C(CC)c2cc(C)ccc2S3)CC1`, the “activity change, negative = inhibition” value is inactive: 3.11%.

Turning to `CCN(CC)S(=O)(=O)c1cccc(NC(=O)CCSc2ccc(Cl)cc2)c1`, the “activity change, negative = inhibition” value is inactive: -6.52%.

In the case of `O=C1C=C(c2ccc(Cl)c(C(F)(F)F)c2)C[C@@H](c2ccc(Cl)cc2)C1`, the “activity change, negative = inhibition” value was inactive: 2.48%.

For the molecule `CC(=O)c1ccc(S(=O)(=O)N2CCN(CCOc3ccc(Br)cc3)CC2)cc1`, the “activity change, negative = inhibition” value is inactive: 1.93%.

Take `COCCNc1cnn(-c2ccccc2)c(=O)c1Cl`: the “activity change, negative = inhibition” value was inactive: 2.15%.

Consider `Clc1c(CSc2nc3ccccc3o2)nc2ccccn12`, for which the “activity change, negative = inhibition” value is inactive: 3.19%.

For `COC(=O)c1ccc(C2C(Oc3ccccc3C)C(=O)N2CCc2ccc(OC)c(OC)c2)cc1` (stereo unspecified), the “activity change, negative = inhibition” value is inactive: -4.95%.

In the case of `Nc1c(C(=O)NCc2ccc3c(c2)OCO3)nnn1CC(=O)Nc1ccc(Br)cc1`, the “activity change, negative = inhibition” value is inactive: 1.25%.

In the case of `O=C(Nc1ccncc1)Nc1cc(Cl)ccc1Cl`, the “activity change, negative = inhibition” value was inactive: -5.24%.

Turning to `C/C(=N/OCO/N=C(/C)c1ccc(F)cc1)c1ccc(F)cc1`, the “activity change, negative = inhibition” value is inactive: 4.84%.

With `C=CCN(c1ccccc1)S(=O)(=O)c1ccc2[nH]cc(C(=O)NCCOC)c(=O)c2c1`, the “activity change, negative = inhibition” value is inactive: -2.5%.

With `O=C(CN1C(=O)NC2(CCCCCC2)C1=O)N1CCC(Cc2ccccc2)CC1`, the “activity change, negative = inhibition” value is inactive: 1.22%.

As for `COc1ccc(NC(=O)/C(Cl)=C(/Cl)S(=O)Cc2ccccc2Cl)cn1` (stereo unspecified), the “activity change, negative = inhibition” value is inactive: -8.16%.
